According to US20190062427A1:
Substitutions are numbered along the chain they refer to. No constants are given. Whether binding was seen depends on the method and setting. Some results given as binding are weak or reduced against the parent protein; the word gives no strength.

The chains behind the UniProt entries cited, without tags or fusion partners. Where a name states a change or a piece, a line headed by the entry shows the natural chain unless it says otherwise.
UniProt Q9Y336: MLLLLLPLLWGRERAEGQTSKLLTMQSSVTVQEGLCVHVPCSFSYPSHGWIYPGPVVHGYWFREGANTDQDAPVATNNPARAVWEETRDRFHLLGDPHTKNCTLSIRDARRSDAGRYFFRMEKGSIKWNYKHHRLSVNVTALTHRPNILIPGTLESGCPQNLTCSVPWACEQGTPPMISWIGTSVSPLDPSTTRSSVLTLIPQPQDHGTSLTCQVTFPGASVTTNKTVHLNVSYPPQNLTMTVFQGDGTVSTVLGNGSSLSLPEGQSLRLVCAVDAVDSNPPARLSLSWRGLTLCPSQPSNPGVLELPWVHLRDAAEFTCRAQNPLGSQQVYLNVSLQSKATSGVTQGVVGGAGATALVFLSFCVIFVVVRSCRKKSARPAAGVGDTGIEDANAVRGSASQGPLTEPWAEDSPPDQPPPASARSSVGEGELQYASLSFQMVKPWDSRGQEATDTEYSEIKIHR

Legend:
[1] = target: Histidine-tagged human Siglec-9 (NovoProtein) (human) (UniProt Q9Y336); assay: SPR (Biacore T200), mAb captured on anti-mouse IgG CM5 chip, 100 nM His-tagged Siglec-9 injected
[2] = target: human Siglec-9 expressed on human cells (human) (UniProt Q9Y336); assay: flow cytometry on human primary dendritic cells, mAb plus labelled secondary antibody
[3] = target: human Siglec-9 expressed on human cells (human) (UniProt Q9Y336); assay: flow cytometry on human primary cells expressing Siglec-9
[4] = target: Histidine-tagged human Siglec-9 (NovoProtein) (human) (UniProt Q9Y336); assay: SPR (Biacore T200), mAb captured on anti-mouse IgG CM5 chip, 200 nM His-tagged Siglec-9 injected [Contd.]

Measured: binding

B1: anti-Siglec-9 antibody 5B1 (antibody, IgG1, V domains shown)
VH: QVQLQQSGAEVVKPGASVKLSCKAFGYTFTSYWMHWVKQRPGQGLEWIGEINPRDGVSNCNEKFTSKATLTVDTSSNTAYMQLNNLTSEDSAVYYCTIWEDYFDYWGQGTTLTVST
VL: NVVMTQTPLTLSVTLGQPASISCKSSQSLLYTNGKTYLNWLLQRPGQSPKLLIYLVSKLESGVPDRFSGSGSGTDFTLKINRVEAEDLGVYYCLQATHFPLTFGAGTKLELK
binds: [1] | [2] | [3]

B2: anti-Siglec-9 antibody 7H12 (antibody, V domains shown)
VH: B1 VH
VL: B1 VL with V3Z, Y92F, T97P, A105G, L111M
binds: [4] | [2] | [3]
